Results deposited as PubChem BioAssay AID602196 (INSERM, 2012)
Assay: 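Knock-downs that protect lung cancer cells from cisplatin or sensitise them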. Cell system: human A549 lung cancer cells. Reagent: siRNA pair against human genes. Duration: 48 h transfection before cisplatin; time from cisplatin to read-out not stated. Challenge: cisplatin at a dose killing half of control-siRNA cells; exact dose and duration not given. Detection: 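Cisplatin cell death as a shift from the 50% death seen with control siRNA; siRNAs toxic or growth-blocking alone scored 0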. Scale: two-siRNA summed score (-2 to +2): higher = both siRNAs protect from cisplatin killing; -2 means both sensitise; mean protection from cisplatin (shift in death) and protection from cisplatin (shift in death), siRNA C: higher = protection from cisplatin killing. Hit rule: 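siRNAs harmful alone (LDH or WST-1) get 0; others get +1 for less and -1 for more cisplatin killing; genes are active when the two siRNAs give the same sign, summing to ±2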. Calls: active = both siRNAs shift cisplatin killing the same way; inactive = no consistent shift, or siRNA harmful alone.
This is a random part of about 23,000 reagents. 455 of them (2%) were called active. 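Active includes both protection and sensitisation; some change values fall well beyond the stated -50 to +50 range.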 Entries without a mark were called inactive. Not all columns of the deposit are shown. No sequences are given here. Not given: the amount of reagent.

gene | two-siRNA summed score (-2 to +2) | mean protection from cisplatin (shift in death) (%) | protection from cisplatin (shift in death), siRNA C (%)
LUC7L | 0 | -1.1 | -1.1
ACSL4 | 0 | 1.6 | 0
ACTR10 | 0 | 9.5 | 10
OR5K4 | 0 | 0.4 | -3.1
LOC442111 | 1 | 25.2 | 21.8
LOC128939 | 0 | -3.3 | -4.1
LOC442511 | 0 | 5.7 | 2.8
WDR44 | 0 | 2.3 | -13.2
LOC440951 | 0 | 5.8 | 6.7
LMBR1L | 0 | 11.4 | 11.5
ARL13A | 0 | 15.8 | 21.9
LOC162835 | 0 | 4 | 2.8
KCNA3 | 0 | -2.6 | 16.2
ZSCAN29 | 0 | 9 | 9.9
KCNH3 | -1 | -9.2 | -18.5
TNFRSF21 | 0 | -2.3 | -12
MCCC1 | 0 | 0.6 | -14.3
SCARB2 | -1 | -5.3 | -27.9
RPN2 | 0 | 1.4 | 2.6
LOC441062 | 0 | 14.3 | 2.9
ZFY | 1 | 8.3 | 1.2
SUCLG2P2 | 0 | 11 | 26.3
CYP17A1 | 0 | -0.7 | 0.2

Sorted by “two-siRNA summed score (-2 to +2)” (low to high): 2 of the entries above
gene | two-siRNA summed score (-2 to +2) | mean protection from cisplatin (shift in death) (%) | protection from cisplatin (shift in death), siRNA C (%)
SCARB2 | -1 | -5.3 | -27.9
MCCC1 | 0 | 0.6 | -14.3
